In paper PMC4814551:
These are yes or no findings as the source states them, for the method shown. For some assays here: A result given as binding can be weak or reduced; the word gives no strength. For some assays here: Binding seen in cells or lysates may run through a third protein. For some assays here: Tags and fused reporters may be left off the sequences shown.

What was measured:
[1] = biological target: TaSnRK2.10 (GAL4BD fusion) (Triticum aestivum (wheat)); assay: two-hybrid; MatchMaker GAL4 two-hybrid system-3, yeast AH109; GAL4BD:TaSnRK2s (pGBKT7) with GAL4AD:TaABI1 (pGADT7); SD media -LW, -LWH + 10 mM 3-AT, -LWHA + 30 mM 3-AT
[2] = biological target: TaSnRK2.8 (GAL4BD fusion) (Triticum aestivum (wheat)); assay: as above
[3] = biological target: TaSnRK2.9 (GAL4BD fusion) (Triticum aestivum (wheat)); assay: as above
[4] = biological target: TaSnRK2.9-YFP^N (TaSnRK2:HA fusion) (Triticum aestivum (wheat)); assay: split reporter; BiFC with split YFP in epidermal cells of tobacco leaves, Agrobacterium infiltration, confocal microscopy 4 days after infiltration
[5] = biological target: TaSnRK2.6-YFP^N (TaSnRK2:HA fusion) (Triticum aestivum (wheat)); assay: as above
[6] = biological target: TaSnRK2.4-YFP^N (TaSnRK2:HA fusion) (Triticum aestivum (wheat)); assay: as above
[7] = biological target: TaSnRK2.3-YFP^N (TaSnRK2:HA fusion) (Triticum aestivum (wheat)); assay: as above
[8] = biological target: TaSnRK2.7-YFP^N (TaSnRK2:HA fusion) (Triticum aestivum (wheat)); assay: as above
[9] = biological target: TaSnRK2.1-YFP^N (TaSnRK2:HA fusion) (Triticum aestivum (wheat)); assay: as above
[10] = biological target: TaSnRK2.5-YFP^N (TaSnRK2:HA fusion) (Triticum aestivum (wheat)); assay: as above
[11] = biological target: TaSnRK2.8-YFP^N (TaSnRK2:HA fusion) (Triticum aestivum (wheat)); assay: as above
[12] = biological target: TaSnRK2.10-YFP^N (TaSnRK2:HA fusion) (Triticum aestivum (wheat)); assay: as above
[13] = biological target: TaSnRK2.2-YFP^N (TaSnRK2:HA fusion) (Triticum aestivum (wheat)); assay: as above
[14] = biological target: TaSnRK2.9-YFP^N (TaSnRK2:HA fusion) (Triticum aestivum (wheat)); assay: co-IP; extracts of transfected tobacco leaves in PBS with 0.05% Triton X-100, 1 mM EDTA, protease inhibitors; HA-tagged proteins precipitated on anti-HA micro MACS beads, blot with anti-myc (the legend of Figure 4C says the reverse)
[15] = biological target: TaSnRK2.6-YFP^N (TaSnRK2:HA fusion) (Triticum aestivum (wheat)); assay: as above
[16] = biological target: TaSnRK2.4-YFP^N (TaSnRK2:HA fusion) (Triticum aestivum (wheat)); assay: as above
[17] = biological target: TaSnRK2.3-YFP^N (TaSnRK2:HA fusion) (Triticum aestivum (wheat)); assay: as above
[18] = biological target: TaSnRK2.7-YFP^N (TaSnRK2:HA fusion) (Triticum aestivum (wheat)); assay: as above
[19] = biological target: TaSnRK2.1-YFP^N (TaSnRK2:HA fusion) (Triticum aestivum (wheat)); assay: as above
[20] = biological target: TaSnRK2.5-YFP^N (TaSnRK2:HA fusion) (Triticum aestivum (wheat)); assay: as above
[21] = biological target: TaSnRK2.8-YFP^N (TaSnRK2:HA fusion) (Triticum aestivum (wheat)); assay: as above
[22] = biological target: TaSnRK2.10-YFP^N (TaSnRK2:HA fusion) (Triticum aestivum (wheat)); assay: as above
[23] = biological target: TaSnRK2.2-YFP^N (TaSnRK2:HA fusion) (Triticum aestivum (wheat)); assay: as above

B1: TaABI1 (GAL4AD:TaABI1) (protein, UniProt A5A6P8 1-479)
chain: MEDVAVAALATAPTPVFSPATAGLTLIAAAAAEPIAAVVAGAMEGVPVTFSVPPVRTTTDDGLPAATGGEGGEASAAGSPCSVTSDCSSVASADFEGVGLGFFGAGVEGGAVVFEDSAASAATVEAEARVAAGGRSVFAVECVPLWGFTSICGRRPEMEDAVIAVPRFFGLPLWMLTGNNMVDGLDPISFRLPAHFFGVYDGHGGAQVADYCRDRLHAALVEELSRIEGSVSGANLGAVEFKKQWEKAFVDCFSRVDDEIAGKVTSGGGGNVGTSSVTAMGMVDPVAPETVGSTAVVAVICSSHIIVSNCGDSRAVLCRGKQPVPLSVDHKPNREDEYARIEAEGGKVIQWNGYRVFGVLAMSRSIGDRYLKPWIIPVPEVTIVPRAKDDECLILASDGLWDVLSNEEVCDVARKRILLWHKKNGVNLSSAQRSGDSPDPAAQAAAECLSKLALQKGSKDNITVIVVDLKAQRKFKSKT
[1]
  binding: binds
[2]
  binding: binds
[3]
  binding: binds

B2: TaABI1-YFP^C (TaABI1:c-myc fusion) (protein, UniProt A5A6P8 1-479)
chain: MEDVAVAALATAPTPVFSPATAGLTLIAAAAAEPIAAVVAGAMEGVPVTFSVPPVRTTTDDGLPAATGGEGGEASAAGSPCSVTSDCSSVASADFEGVGLGFFGAGVEGGAVVFEDSAASAATVEAEARVAAGGRSVFAVECVPLWGFTSICGRRPEMEDAVIAVPRFFGLPLWMLTGNNMVDGLDPISFRLPAHFFGVYDGHGGAQVADYCRDRLHAALVEELSRIEGSVSGANLGAVEFKKQWEKAFVDCFSRVDDEIAGKVTSGGGGNVGTSSVTAMGMVDPVAPETVGSTAVVAVICSSHIIVSNCGDSRAVLCRGKQPVPLSVDHKPNREDEYARIEAEGGKVIQWNGYRVFGVLAMSRSIGDRYLKPWIIPVPEVTIVPRAKDDECLILASDGLWDVLSNEEVCDVARKRILLWHKKNGVNLSSAQRSGDSPDPAAQAAAECLSKLALQKGSKDNITVIVVDLKAQRKFKSKT
[4]
  binding: binds
[5]
  binding: no binding
[6]
  binding: no binding
[7]
  binding: no binding
[8]
  binding: no binding
[9]
  binding: no binding
[10]
  binding: no binding
[11]
  binding: binds
[12]
  binding: binds
[13]
  binding: no binding
[14]
  binding: binds
[15]
  binding: no binding
[16]
  binding: no binding
[17]
  binding: no binding
[18]
  binding: no binding
[19]
  binding: no binding
[20]
  binding: no binding
[21]
  binding: binds
[22]
  binding: binds
[23]
  binding: no binding
